Measured values as given in the supplement of paper PMC11006884.
Only a part is listed here, and it is no random draw.

Protein sequences, listed by entry. Tags and fused reporters are not part of them. Lines headed by an entry give the natural chain unless they say otherwise; changes in a name come on top.
UniProt Q9HAU5: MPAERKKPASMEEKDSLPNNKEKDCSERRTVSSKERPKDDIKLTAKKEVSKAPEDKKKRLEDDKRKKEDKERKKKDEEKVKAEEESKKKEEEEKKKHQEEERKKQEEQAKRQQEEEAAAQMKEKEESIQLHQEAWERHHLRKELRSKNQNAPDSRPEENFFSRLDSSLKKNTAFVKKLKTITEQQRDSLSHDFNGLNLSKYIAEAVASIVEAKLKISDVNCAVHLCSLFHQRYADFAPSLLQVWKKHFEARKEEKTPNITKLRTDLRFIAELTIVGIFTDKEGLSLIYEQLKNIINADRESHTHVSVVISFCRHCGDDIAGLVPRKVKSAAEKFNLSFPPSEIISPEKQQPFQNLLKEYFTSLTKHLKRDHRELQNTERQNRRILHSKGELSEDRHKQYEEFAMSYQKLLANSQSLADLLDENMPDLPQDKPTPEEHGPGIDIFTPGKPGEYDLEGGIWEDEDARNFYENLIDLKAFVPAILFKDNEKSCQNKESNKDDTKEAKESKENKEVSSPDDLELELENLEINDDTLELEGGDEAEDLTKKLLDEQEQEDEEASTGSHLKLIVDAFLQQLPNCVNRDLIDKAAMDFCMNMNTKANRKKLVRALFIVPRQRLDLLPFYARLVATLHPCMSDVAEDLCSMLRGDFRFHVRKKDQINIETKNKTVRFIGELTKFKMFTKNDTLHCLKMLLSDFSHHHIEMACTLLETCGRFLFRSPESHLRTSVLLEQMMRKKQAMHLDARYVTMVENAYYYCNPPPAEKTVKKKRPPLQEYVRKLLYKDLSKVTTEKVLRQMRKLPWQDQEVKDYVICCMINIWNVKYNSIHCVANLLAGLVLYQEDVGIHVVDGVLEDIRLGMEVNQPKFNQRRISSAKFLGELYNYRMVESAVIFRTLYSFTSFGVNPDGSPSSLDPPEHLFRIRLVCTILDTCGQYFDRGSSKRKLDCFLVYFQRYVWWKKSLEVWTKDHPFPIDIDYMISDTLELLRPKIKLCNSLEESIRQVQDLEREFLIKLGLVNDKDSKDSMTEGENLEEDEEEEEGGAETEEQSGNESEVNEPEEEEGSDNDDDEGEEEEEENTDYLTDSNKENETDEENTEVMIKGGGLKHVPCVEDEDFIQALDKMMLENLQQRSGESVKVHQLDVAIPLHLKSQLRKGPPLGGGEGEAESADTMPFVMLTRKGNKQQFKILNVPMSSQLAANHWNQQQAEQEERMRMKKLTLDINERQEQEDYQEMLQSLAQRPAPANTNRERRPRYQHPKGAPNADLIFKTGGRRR
UniProt Q9NRZ9: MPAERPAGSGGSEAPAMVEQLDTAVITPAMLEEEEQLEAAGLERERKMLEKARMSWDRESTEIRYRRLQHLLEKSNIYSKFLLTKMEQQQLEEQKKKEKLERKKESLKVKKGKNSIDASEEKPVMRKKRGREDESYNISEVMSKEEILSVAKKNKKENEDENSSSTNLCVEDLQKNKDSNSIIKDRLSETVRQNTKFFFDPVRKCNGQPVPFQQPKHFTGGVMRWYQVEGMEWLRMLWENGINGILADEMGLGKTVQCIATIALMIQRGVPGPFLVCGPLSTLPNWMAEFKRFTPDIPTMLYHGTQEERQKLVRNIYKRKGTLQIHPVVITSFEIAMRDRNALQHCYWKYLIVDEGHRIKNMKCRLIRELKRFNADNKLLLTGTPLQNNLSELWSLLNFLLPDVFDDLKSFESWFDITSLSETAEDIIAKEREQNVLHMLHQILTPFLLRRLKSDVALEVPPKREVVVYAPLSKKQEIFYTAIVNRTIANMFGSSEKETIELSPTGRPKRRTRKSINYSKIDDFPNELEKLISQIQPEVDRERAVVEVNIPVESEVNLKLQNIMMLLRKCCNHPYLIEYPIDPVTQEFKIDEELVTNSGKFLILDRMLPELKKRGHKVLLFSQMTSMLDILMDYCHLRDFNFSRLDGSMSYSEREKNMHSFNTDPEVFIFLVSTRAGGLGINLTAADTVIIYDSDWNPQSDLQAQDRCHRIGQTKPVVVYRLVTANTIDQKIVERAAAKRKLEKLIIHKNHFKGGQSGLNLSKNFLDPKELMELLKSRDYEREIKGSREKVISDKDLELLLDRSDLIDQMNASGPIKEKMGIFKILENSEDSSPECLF
UniProt Q9NQZ2: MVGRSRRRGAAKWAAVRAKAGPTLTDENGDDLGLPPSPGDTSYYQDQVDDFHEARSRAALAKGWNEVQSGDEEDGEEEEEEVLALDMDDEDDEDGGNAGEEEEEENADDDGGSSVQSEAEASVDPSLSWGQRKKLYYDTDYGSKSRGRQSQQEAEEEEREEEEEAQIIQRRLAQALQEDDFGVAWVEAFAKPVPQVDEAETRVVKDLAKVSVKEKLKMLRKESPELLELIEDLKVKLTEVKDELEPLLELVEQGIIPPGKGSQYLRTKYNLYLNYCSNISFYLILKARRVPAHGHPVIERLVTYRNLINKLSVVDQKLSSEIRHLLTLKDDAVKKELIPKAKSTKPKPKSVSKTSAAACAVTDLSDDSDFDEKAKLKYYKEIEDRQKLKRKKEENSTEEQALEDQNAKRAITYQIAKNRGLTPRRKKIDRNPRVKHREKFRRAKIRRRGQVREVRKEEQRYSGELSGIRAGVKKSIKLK
UniProt Q9HCM4: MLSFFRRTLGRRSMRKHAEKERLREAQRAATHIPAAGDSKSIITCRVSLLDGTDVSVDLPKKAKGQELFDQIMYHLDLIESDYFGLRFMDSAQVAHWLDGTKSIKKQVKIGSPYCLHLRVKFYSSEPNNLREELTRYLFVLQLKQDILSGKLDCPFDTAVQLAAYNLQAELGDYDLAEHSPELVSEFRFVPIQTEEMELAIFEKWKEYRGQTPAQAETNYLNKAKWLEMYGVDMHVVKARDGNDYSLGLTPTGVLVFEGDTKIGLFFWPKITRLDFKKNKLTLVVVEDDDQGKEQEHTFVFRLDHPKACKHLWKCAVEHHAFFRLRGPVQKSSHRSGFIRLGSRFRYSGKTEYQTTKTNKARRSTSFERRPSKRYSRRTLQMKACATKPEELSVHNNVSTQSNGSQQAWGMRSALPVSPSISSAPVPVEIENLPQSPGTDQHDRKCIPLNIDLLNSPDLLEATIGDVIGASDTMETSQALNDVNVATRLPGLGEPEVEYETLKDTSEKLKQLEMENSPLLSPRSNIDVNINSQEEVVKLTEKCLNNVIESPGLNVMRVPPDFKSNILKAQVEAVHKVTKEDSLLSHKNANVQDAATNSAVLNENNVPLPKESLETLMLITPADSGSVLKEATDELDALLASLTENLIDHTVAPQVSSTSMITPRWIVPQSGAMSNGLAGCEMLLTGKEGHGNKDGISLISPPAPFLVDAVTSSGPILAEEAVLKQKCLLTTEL
UniProt Q9H3U1: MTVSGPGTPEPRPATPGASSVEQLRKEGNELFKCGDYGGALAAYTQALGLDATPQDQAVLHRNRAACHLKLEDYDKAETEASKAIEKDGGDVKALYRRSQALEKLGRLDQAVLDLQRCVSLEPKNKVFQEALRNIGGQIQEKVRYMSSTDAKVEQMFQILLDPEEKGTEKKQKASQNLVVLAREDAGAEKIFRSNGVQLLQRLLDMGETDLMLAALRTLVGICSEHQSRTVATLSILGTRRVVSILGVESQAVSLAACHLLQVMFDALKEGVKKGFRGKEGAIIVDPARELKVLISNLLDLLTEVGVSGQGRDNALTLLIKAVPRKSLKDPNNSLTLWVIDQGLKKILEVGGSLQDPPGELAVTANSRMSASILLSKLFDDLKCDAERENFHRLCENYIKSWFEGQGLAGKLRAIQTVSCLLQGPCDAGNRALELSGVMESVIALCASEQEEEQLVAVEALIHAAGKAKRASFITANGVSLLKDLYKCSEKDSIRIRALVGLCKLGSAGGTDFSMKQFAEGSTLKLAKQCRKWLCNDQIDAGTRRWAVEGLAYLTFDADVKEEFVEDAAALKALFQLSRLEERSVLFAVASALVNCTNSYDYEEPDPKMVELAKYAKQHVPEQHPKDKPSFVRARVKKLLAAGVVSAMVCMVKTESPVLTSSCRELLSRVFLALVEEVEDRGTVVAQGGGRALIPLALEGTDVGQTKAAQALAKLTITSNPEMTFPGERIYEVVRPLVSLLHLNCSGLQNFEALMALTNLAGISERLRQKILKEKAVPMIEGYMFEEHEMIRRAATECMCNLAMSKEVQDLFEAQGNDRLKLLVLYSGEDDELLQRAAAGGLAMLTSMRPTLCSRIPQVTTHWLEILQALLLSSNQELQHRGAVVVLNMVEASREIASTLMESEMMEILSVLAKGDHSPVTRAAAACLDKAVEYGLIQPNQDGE
UniProt Q9NUP1: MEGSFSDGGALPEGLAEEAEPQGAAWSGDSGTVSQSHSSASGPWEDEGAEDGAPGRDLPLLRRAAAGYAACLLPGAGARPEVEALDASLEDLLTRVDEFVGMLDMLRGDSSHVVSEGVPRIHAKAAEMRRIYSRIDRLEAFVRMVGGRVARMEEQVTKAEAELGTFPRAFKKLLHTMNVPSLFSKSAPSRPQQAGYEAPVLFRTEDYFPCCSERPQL
UniProt Q9NQW7: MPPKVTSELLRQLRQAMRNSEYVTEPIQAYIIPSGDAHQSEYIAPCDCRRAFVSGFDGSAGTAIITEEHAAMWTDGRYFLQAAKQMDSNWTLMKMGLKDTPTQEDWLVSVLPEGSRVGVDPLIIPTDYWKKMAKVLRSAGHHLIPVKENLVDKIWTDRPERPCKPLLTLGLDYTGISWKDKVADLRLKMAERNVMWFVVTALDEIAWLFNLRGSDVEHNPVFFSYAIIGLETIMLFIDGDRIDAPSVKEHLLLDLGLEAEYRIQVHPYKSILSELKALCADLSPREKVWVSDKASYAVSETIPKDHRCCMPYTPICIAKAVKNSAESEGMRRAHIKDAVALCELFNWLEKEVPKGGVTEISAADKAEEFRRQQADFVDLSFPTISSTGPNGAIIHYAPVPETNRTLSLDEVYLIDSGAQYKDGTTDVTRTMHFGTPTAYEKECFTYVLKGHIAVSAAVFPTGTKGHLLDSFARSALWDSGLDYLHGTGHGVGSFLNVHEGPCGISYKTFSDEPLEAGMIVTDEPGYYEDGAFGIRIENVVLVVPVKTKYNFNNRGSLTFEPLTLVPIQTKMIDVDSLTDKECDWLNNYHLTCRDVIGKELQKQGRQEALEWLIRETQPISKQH
UniProt Q9HAV4: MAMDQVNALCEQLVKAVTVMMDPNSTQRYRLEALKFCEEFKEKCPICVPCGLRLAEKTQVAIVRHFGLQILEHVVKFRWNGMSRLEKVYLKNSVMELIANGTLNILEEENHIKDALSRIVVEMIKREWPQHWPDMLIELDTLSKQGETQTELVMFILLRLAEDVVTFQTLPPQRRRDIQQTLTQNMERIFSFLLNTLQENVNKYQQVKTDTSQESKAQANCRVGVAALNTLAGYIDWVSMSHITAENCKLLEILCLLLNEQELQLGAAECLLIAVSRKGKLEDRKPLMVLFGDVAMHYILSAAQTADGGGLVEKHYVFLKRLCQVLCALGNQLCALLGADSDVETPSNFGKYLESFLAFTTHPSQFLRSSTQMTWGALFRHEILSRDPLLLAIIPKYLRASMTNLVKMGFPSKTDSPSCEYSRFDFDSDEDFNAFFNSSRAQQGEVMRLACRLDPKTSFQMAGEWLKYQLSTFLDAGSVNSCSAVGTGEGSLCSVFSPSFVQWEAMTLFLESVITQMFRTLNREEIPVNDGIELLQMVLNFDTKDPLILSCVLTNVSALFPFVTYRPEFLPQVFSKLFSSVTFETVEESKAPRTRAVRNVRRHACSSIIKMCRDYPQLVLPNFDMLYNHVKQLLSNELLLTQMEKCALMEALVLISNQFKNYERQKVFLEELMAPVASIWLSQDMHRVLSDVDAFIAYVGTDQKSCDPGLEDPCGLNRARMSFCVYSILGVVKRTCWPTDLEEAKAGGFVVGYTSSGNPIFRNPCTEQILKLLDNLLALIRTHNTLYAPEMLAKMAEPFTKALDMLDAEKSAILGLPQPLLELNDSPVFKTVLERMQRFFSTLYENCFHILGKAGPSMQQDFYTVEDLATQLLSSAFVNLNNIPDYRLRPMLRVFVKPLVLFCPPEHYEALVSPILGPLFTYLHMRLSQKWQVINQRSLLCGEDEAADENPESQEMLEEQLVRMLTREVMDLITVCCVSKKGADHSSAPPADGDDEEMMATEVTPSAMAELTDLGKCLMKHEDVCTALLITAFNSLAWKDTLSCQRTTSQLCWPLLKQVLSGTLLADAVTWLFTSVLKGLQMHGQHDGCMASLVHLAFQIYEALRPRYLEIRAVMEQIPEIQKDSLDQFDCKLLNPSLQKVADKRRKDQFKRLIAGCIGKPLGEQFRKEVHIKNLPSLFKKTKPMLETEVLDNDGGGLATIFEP
UniProt Q9H7E9: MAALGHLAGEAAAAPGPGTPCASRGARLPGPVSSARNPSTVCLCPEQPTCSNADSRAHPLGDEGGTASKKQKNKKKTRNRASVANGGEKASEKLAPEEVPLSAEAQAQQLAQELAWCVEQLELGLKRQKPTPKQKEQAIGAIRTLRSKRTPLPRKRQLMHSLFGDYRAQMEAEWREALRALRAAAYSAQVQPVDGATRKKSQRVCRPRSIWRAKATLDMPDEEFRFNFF

What follows are targets tested with COC(=O)C#Cc1ccccc1 [methyl 3-phenylpropiolate] (assay: log2 ratio of iodoacetamide-alkyne labeling of the cysteine site, DMSO over compound (competition); higher = stronger covalent engagement of the cysteine by the compound, active = 1 or more). Settings: 500 µM; treatment time 1 h; system: HEK293T cell lysate.
In short: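 After 1 h at ambient temperature with vehicle or electrophile (500 µM), HEK293T lysate (2 mg/mL) was labelled for 1 h with iodoacetamide alkyne and clicked to sCIP-TMT reagents. Pooled samples were trypsin-digested overnight at 37 °C, streptavidin-enriched, acid-eluted and analysed by Orbitrap Eclipse LC-MS/MS with FAIMS, then quantified in FragPipe over three replicates with duplicate channels. A cysteine's log2 competition ratio is its mean control-channel over mean compound-channel reporter intensity. Cysteines quantified in only one replicate were not included.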

Row | Target | log2 ratio of iodoacetamide-alkyne labeling
1 | UPF2 C1107 (UniProt Q9HAU5) | inactive: 0.18
2 | LRRC40 C227 (UniProt Q9H9A6) | inactive: 0.34
3 | NOL6 C1034 (UniProt Q9H6R4) | active: 1.81
4 | SMC4 C190 (UniProt Q9NTJ3) | inactive: 0.109
5 | CHD8 C1980 (UniProt Q9HCK8) | inactive: 0.669
6 | LANCL2 C187 (UniProt Q9NS86) | inactive: -0.0212
7 | HELLS C205 (UniProt Q9NRZ9) | inactive: 0.615
8 | WDR54 C18 (UniProt Q9H977) | inactive: 0.253
9 | SCAF1 C950 (UniProt Q9H7N4) | inactive: 0.462
10 | BRD7 C271 (UniProt Q9NPI1) | inactive: 0.755
11 | WNK1 C547 (UniProt Q9H4A3) | inactive: 0.996
12 | ISYNA1 C235 (UniProt Q9NPH2) | inactive: -0.0574
13 | UTP3 C359 (UniProt Q9NQZ2) | inactive: 0.366
14 | DSN1 C287 (UniProt Q9H410) | inactive: 0.233
15 | EPB41L5 C385 (UniProt Q9HCM4) | inactive: 0.393
16 | UNC45A C384 (UniProt Q9H3U1) | inactive: 0.0438
17 | ISYNA1 C380 (UniProt Q9NPH2) | inactive: 0.537
18 | UniProt Q9NUP1_C210 | inactive: 0.821
19 | MDN1 C4345 (UniProt Q9NU22) | inactive: 0.187

8 entries from above, reformatted:
Row	Target	log2 ratio of iodoacetamide-alkyne labeling
1	UPF2 C1107 (UniProt Q9HAU5)	inactive: 0.18
2	LRRC40 C227 (UniProt Q9H9A6)	inactive: 0.34
3	NOL6 C1034 (UniProt Q9H6R4)	active: 1.81
4	SMC4 C190 (UniProt Q9NTJ3)	inactive: 0.109
5	CHD8 C1980 (UniProt Q9HCK8)	inactive: 0.669
6	LANCL2 C187 (UniProt Q9NS86)	inactive: -0.0212
7	HELLS C205 (UniProt Q9NRZ9)	inactive: 0.615
8	WDR54 C18 (UniProt Q9H977)	inactive: 0.253

Further results follow.

Row | Target | log2 ratio of iodoacetamide-alkyne labeling
20 | RMI1 C268 (UniProt Q9H9A7) | inactive: 0.215
21 | XPNPEP1 C308 (UniProt Q9NQW7) | inactive: 0.061
22 | FAM83D C19 (UniProt Q9H4H8) | active: 1.11
23 | TRABD C287 (UniProt Q9H4I3) | inactive: 0.0519
24 | UniProt Q9NQ88_C114 | inactive: 0.336
25 | XPO5 C10 (UniProt Q9HAV4) | inactive: -0.0199
26 | XPNPEP1 C309 (UniProt Q9NQW7) | inactive: 0.143
27 | UBN1 C711 (UniProt Q9NPG3) | inactive: 0.7
28 | ATP13A1 C574 (UniProt Q9HD20) | inactive: 0.238
29 | ZNF703 C96 (UniProt Q9H7S9) | inactive: 0.47
30 | C8orf33 C117 (UniProt Q9H7E9) | inactive: 0.0832
31 | XPO5 C1157 (UniProt Q9HAV4) | inactive: 0.173
32 | BIRC6 C613 (UniProt Q9NR09) | inactive: 0.352
33 | STARD7 C302 (UniProt Q9NQZ5) | inactive: 0.0291
34 | PPA2 C44 (UniProt Q9H2U2) | inactive: 0.00147
35 | ARFGAP3 C312 (UniProt Q9NP61) | inactive: 0.763
36 | YTHDC2 C25 (UniProt Q9H6S0) | inactive: 0.178
37 | TTC12 C525 (UniProt Q9H892) | inactive: 0.76
